Laboratory results taken from the supplement of paper PMC7580552.
Where a name gives a salt, the structure may show the parent alone. ± gives the standard deviation of the averaged measurements. The list shows a part of the results. Plates or batches differ in their baseline, so values are only roughly comparable.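 The strain is a K-12 laboratory model grown without shaking in 96-well plates, and biofilm is the crystal violet stain retained on the wells, read as absorbance. Drugs were picked as candidate specific biofilm blockers when they cut staining strongly but slowed free-floating growth by less than 70%.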

What follows are compounds tested on Escherichia coli W3110 (assay: biofilm formation (crystal violet staining) relative to untreated control; higher = more biofilm). Settings: 10 µM; 20-24 h; 30 °C; TB.

Structure (SMILES) | biofilm formation [%]
CN[C@@H]1C[C@@H](c2ccc(Cl)c(Cl)c2)c2ccccc21 [Indatraline hydrochloride] | 94
O=[N+]([O-])O[C@@H]1CO[C@H]2[C@@H]1OC[C@@H]2O [Isosorbide mononitrate] | 72
C[C@H](N)[C@H](O)c1ccc(O)c(O)c1 [Levonordefrin] | 81
CC(C)N(CCC(C(N)=O)(c1ccccc1)c1ccccn1)C(C)C (stereo not drawn) [Disopyramide] | 55
C1CCc2nnnn2CC1 [Pentylenetetrazole] | 75
CC(Cc1ccc(O)cc1)NCC(O)c1cc(O)cc(O)c1 (stereo not drawn) [Fenoterol hydrobromide] | 60
C=CC[C@]1(O)CC[C@H]2[C@@H]3CCC4=CC(=O)CCC4=C3C=C[C@@]21C [Altrenogest] | 78
C[C@]12CC[C@@H](O)C[C@@H]1CC[C@@H]1[C@@H]2CC[C@]2(C)C(=O)CC[C@@H]12 [Androsterone] | 86
CNCC(O)c1ccc(O)cc1 (racemic) [(+,-)-Synephrine] | 64
COc1ccc2c(c1)[C@]13CCCC[C@@H]1[C@H](C2)N(C)CC3 [Dextromethorphan hydrobromide monohydrate] | 60
S=C(NC1CCCCC1)N1CCC(c2cnc[nH]2)CC1 [Thioperamide maleate] | 55
C#C[C@]1(O)CC[C@H]2[C@@H]3CCC4=CC(=O)CC[C@]4(C)[C@H]3CC[C@@]21C [Ethisterone] | 71
CC(C)[N+](C)(CCC(C(N)=O)(c1ccccc1)c1ccccc1)C(C)C [Isopropamide iodide] | 83
O=C([O-])c1ccccc1-c1c2cc(Br)c(=O)cc-2oc2[c]([Hg+])c([O-])c(Br)cc12.[Na+].[Na+].[OH-] [Merbromin] | 53
O=c1[nH]c2ccccc2n1CCCN1CCC(n2c(=O)[nH]c3cc(Cl)ccc32)CC1 [Domperidone] | 90
CC(C)CC(N(C)C)C1(c2ccc(Cl)cc2)CCC1 (stereo not drawn) [Sibutramine hydrochloride] | 81
COc1ccc(C(=O)N2CCCC2=O)cc1 [Aniracetam] | 76
CC[C@@H](C(N)=O)N1CCCC1=O [Levetiracetam] | 96
C[N+]1(C)CCOC(O)(c2ccc(-c3ccc(C4(O)C[N+](C)(C)CCO4)cc3)cc2)C1 (stereo not drawn) [Hemicholinium bromide] | 76
C[C@]12CCC(=O)C=C1CC[C@@H]1[C@@H]2C(=O)C[C@]2(C)C(=O)CC[C@@H]12 [Adrenosterone] | 57
CC[C@H](C)[C@H]1O[C@]2(C=C[C@@H]1C)C[C@@H]1C[C@@H](C/C=C(\C)[C@@H](O[C@H]3C[C@H](OC)[C@@H](O[C@H]4C[C@H](OC)[C@@H](O)[C@H](C)O4)[C@H](C)O3)[C@@H](C)/C=C/C=C3\CO[C@@H]4[C@H](O)C(C)=C[C@@H](C(=O)O1)[C@]34O)O2.CO[C@H]1C[C@H](O[C@H]2[C@H](C)O[C@@H](O[C@@H]3/C(C)=C/C[C@@H]4C[C@@H](C[C@]5(C=C[C@H](C)[C@@H](C(C)C)O5)O4)OC(=O)[C@@H]4C=C(C)[C@@H](O)[C@H]5OC/C(=C\C=C\[C@@H]3C)[C@]54O)C[C@@H]2OC)O[C@@H](C)[C@@H]1O [Avermectin B1] | 50
CCN[C@@H](C)Cc1cccc(C(F)(F)F)c1 [Dexfenfluramine hydrochloride] | 95
CC(=O)OC1CN2CCC1CC2 (stereo not drawn) [Aceclidine Hydrochloride] | 91
CC(CCc1ccccc1)NC(C)C(O)c1ccc(O)cc1 (stereo not drawn) [Nylidrin] | 77
COc1cccc(C2(O)CCCCC2CN(C)C)c1 (stereo not drawn) [Tramadol hydrochloride] | 45

Structure (SMILES) | biofilm formation [%]
C[N+]1(C)[C@@H]2CC[C@H]1C[C@@H](OC(=O)C(CO)c1ccccc1)C2 (stereo partly drawn) [Methylatropine nitrate] | 68
CN1C[C@H](C(=O)N[C@]2(C)O[C@@]3(O)[C@@H]4CCCN4C(=O)[C@H](Cc4ccccc4)N3C2=O)C[C@@H]2c3cccc4[nH]cc(c34)C[C@H]21 [Dihydroergotamine tartrate] | 65
C[N+](C)(C)CCCCCCCCCC[N+](C)(C)C [Decamethonium bromide] | 86
CCC(=O)O[C@@](Cc1ccccc1)(c1ccccc1)[C@@H](C)CN(C)C [Levopropoxyphene napsylate] | 60
CC[C@@]1(O)C(=O)OCc2c1cc1n(c2=O)Cc2cc3ccccc3nc2-1 [Camptothecine (S,+)] | 86
COc1ccc(CCN)cc1OC [Homoveratrylamine] | 74
CCCN1C[C@H](CSC)C[C@@H]2c3cccc4[nH]cc(c34)C[C@H]21 [Pergolide mesylate] | 53
CCN(CC)C(C)C(=O)c1ccccc1 (stereo not drawn) [Amfepramone hydrochloride] | 50
C[N+]1([O-])[C@@H]2C[C@@H](OC(=O)[C@H](CO)c3ccccc3)C[C@H]1[C@@H]1O[C@@H]12 (stereo partly drawn) [Scopolamin-N-oxide hydrobromide] | 89
Oc1cc(Cl)ccc1Oc1ccc(Cl)cc1Cl [Triclosan] | 18
CC(=O)O[C@H]1C[C@H](O[C@H]2[C@@H](O)C[C@H](O[C@H]3[C@@H](O)C[C@H](O[C@H]4CC[C@@]5(C)[C@H](CC[C@@H]6[C@@H]5C[C@@H](O)[C@]5(C)[C@@H](C7=CC(=O)OC7)CC[C@]65O)C4)O[C@@H]3C)O[C@@H]2C)O[C@H](C)[C@H]1O[C@@H]1O[C@H](CO)[C@@H](O)[C@H](O)[C@H]1O [Lanatoside C] | 68
COc1ccc(CCN2CCC(Nc3nc4ccccc4n3Cc3ccc(F)cc3)CC2)cc1 [Astemizole] | 52
Fc1ccc(C(OCCN2CCN(CCCc3ccccc3)CC2)c2ccc(F)cc2)cc1 | 77
CC(C)(C)NCC(O)c1cc(Cl)c(N)c(Cl)c1 (stereo not drawn) [Clenbuterol hydrochloride] | 57
CCC1(CC)C(=O)C=CNC1=O [Pyrithyldione] | 75
COc1ccc(Cc2nccc3cc(OC)c(OC)cc23)cc1OC [Papaverine hydrochloride] | 60
CN1[C@@H]2CC[C@H]1C[C@@H](OC1c3ccccc3CCc3ccccc31)C2 [Deptropine citrate] | 68
NCC(O)c1ccc(O)cc1 (racemic) [(+,-)-Octopamine hydrochloride] | 59
C[C@]12CC[C@H](O)C[C@@H]1CC[C@@H]1[C@@H]2CC[C@]2(C)C(=O)CC[C@@H]12 [Epiandrosterone] | 108
CCn1cc(C(=O)O)c(=O)c2cc3c(cc21)OCO3 [Oxolinic acid] | 12
CN(C)C(=O)Oc1cc(OC(=O)N(C)C)cc(C(O)CNC(C)(C)C)c1 (stereo not drawn) [Bambuterol hydrochloride] | 73
CC[C@@]1([C@@H]2O[C@@H]([C@H]3O[C@@](O)(CO)[C@H](C)C[C@@H]3C)C[C@@H]2C)CC[C@H]([C@]2(C)CC[C@]3(C[C@H](O)[C@@H](C)[C@@H]([C@@H](C)[C@@H](OC)[C@H](C)C(=O)O)O3)O2)O1 [Monensin sodium salt] | 60
CCN(C)C(=O)Oc1cccc([C@H](C)N(C)C)c1 [Rivastigmine] | 101
CCC1(c2ccc(N)cc2)CCC(=O)NC1=O (stereo not drawn) [Glutethimide, para-amino] | 68
C[C@]12CC[C@@H]3c4ccc(OC(=O)N(CCCl)CCCl)cc4CC[C@H]3[C@@H]1CC[C@@H]2O [Estramustine] | 92

Quoted at random: 4 compounds from above.
Structure (SMILES) | biofilm formation [%]
CC(=O)O[C@H]1C[C@H](O[C@H]2[C@@H](O)C[C@H](O[C@H]3[C@@H](O)C[C@H](O[C@H]4CC[C@@]5(C)[C@H](CC[C@@H]6[C@@H]5C[C@@H](O)[C@]5(C)[C@@H](C7=CC(=O)OC7)CC[C@]65O)C4)O[C@@H]3C)O[C@@H]2C)O[C@H](C)[C@H]1O[C@@H]1O[C@H](CO)[C@@H](O)[C@H](O)[C@H]1O [Lanatoside C] | 68
C#C[C@]1(O)CC[C@H]2[C@@H]3CCC4=CC(=O)CC[C@]4(C)[C@H]3CC[C@@]21C [Ethisterone] | 71
CC(C)N(CCC(C(N)=O)(c1ccccc1)c1ccccn1)C(C)C (stereo not drawn) [Disopyramide] | 55
CCN(C)C(=O)Oc1cccc([C@H](C)N(C)C)c1 [Rivastigmine] | 101

(continued)

Structure (SMILES) | biofilm formation [%]
CC(=O)OCC(=O)[C@H]1CC[C@H]2[C@@H]3CC[C@H]4C[C@H](O)CC[C@]4(C)[C@H]3C(=O)C[C@]12C [Alfadolone acetate] | 90
NC(=O)CN1CCCC1=O [Piracetam] | 56
C=C(C)[C@@H]1[C@H]2OC(=O)[C@@H]1[C@]1(O)C[C@H]3O[C@]34C(=O)O[C@H]2[C@]14C [Picrotoxinin] | 78
CC(C)c1c(CN(C)C(C)Cc2ccccc2)n(C)n(-c2ccccc2)c1=O (stereo not drawn) [Famprofazone] | 79
Cc1cccc(C)c1NC1=NCCCS1 [Xylazine] | 78
NC(=O)C[S+]([O-])C(c1ccccc1)c1ccccc1 (stereo not drawn) [Modafinil] | 68
CC(=O)NC1CCSC1=O (racemic) [N-Acetyl-DL-homocysteine Thiolactone] | 72
CC(Cc1ccccc1)NCCC(c1ccccc1)c1ccccc1 (stereo not drawn) [Prenylamine lactate] | 121
C[C@]12CC[C@H](O)C[C@H]1CC[C@@H]1[C@@H]2C[C@@H](O)[C@]2(C)[C@@H](C3=CC(=O)OC3)CC[C@]12O [Digoxigenin] | 69.5 ± 6.4
Clc1ccc(C(OCCN2CCCCC2)c2ccccc2)cc1 (stereo not drawn) [Cloperastine hydrochloride] | 78
CN1CCN(C(=O)OC2c3nccnc3C(=O)N2c2ccc(Cl)cn2)CC1 (stereo not drawn) [Zopiclone] | 94
CCC(COC(=O)c1cc(OC)c(OC)c(OC)c1)(c1ccccc1)N(C)C (stereo not drawn) [Trimebutine] | 80
NCCc1c[nH]c2ccc(O)cc12 [Serotonin hydrochloride] | 95
CCN(C(C)=O)c1cccc(-c2ccnc3c(C#N)cnn23)c1 [Zaleplon] | 85
CCC1(c2cccc(O)c2)CCCCN(C)C1 (stereo not drawn) [Meptazinol hydrochloride] | 72
C[C@@H]1CC[C@H]2[C@@H](C)C(=O)O[C@@H]3O[C@@]4(C)CC[C@@H]1[C@]32OO4 [Artemisinin] | 66
COc1cc([C@@H]2c3cc4c(cc3[C@H](O)[C@H]3COC(=O)[C@H]23)OCO4)cc(OC)c1OC [Podophyllotoxin] | 75
CC(C)(C)NCC(O)c1ccccc1Cl (stereo not drawn) [Tulobuterol] | 98
CC(C)C[C@H](CN)CC(=O)O [Pregabalin] | 65
C[C@]12Cc3c[nH]nc3C[C@@H]1CC[C@@H]1[C@@H]2CC[C@@]2(C)[C@H]1CC[C@]2(C)O [Stanozolol] | 90
C[N+]12CCC(CC1)C(OC(=O)C(O)(c1ccccc1)c1ccccc1)C2 (stereo not drawn) [Clidinium bromide] | 72
CO[C@]12C[C@@H](COC(=O)c3cncc(Br)c3)CN(C)[C@@H]1Cc1cn(C)c3cccc2c13 [Nicergoline] | 68
CC(=O)OCC1=C(C(=O)O)N2C(=O)[C@@H](N)[C@H]2SC1 [Cephalosporanic acid, 7-amino] | 100
